The test system of the series is HLA molecules of other tumor types, cell lines and normal tissues. As to the kind of experiment: LC-MS detection of HLA-presented peptides on other tumor types, cell lines and normal tissues. The arrangement: species or system human. Conditions: for peptide detected on tumor samples (positive/measured): FIG. 1A-1D; for peptide found on tumor samples (positive/measured): FIG. 1E-1K.

The mark [1] stands for this setting: gallbladder and bile duct cancers.

For “VLVSDGVHSV (listed as Homo sapiens) [SEQ ID NO.: 6]”, the “peptide detected on tumor samples (positive/measured)” value is given as 10/29 (brain cancers); 3/17 (esophageal cancers); 3/91 (lung cancers); 1/22 (renal cancers); 1/15 (small cell lung cancers). The “peptide found on tumor samples (positive/measured)” value (from here on “peptide found … (positive/measured)”) by setting is: (brain cancers) 15/34; (breast cancers) 3/18; (esophageal cancers) 3/18; (head and neck cancers) 4/12; (kidney cancers) 1/23; (lung cancers) 6/107. Also, the “peptide found … (positive/measured)” value runs as follows: (skin cancers) 5/18; (urinary bladder cancers) 5/15; (uterus cancers) 3/16.
Regarding “GLLRDEALAEV (listed as Homo sapiens) [SEQ ID NO.: 444]”, the “peptide found … (positive/measured)” value is, setting by setting: (breast cancers) 2/18; (colon or rectum cancers) 3/29; (esophageal cancers) 1/18; (head and neck cancers) 1/12; (kidney cancers) 1/23; (leukocytic leukemia cancers) 2/17. Moreover, the “peptide found … (positive/measured)” value is, setting by setting: (lung cancers) 9/107; (myeloid cells cancer) 1/18; (skin cancers) 2/18; (urinary bladder cancers) 2/15; (uterus cancers) 1/16.
Take “SLNDEVPEV (listed as Homo sapiens) [SEQ ID NO.: 157]”: the “peptide found … (positive/measured)” value was 1/17 (bile duct cancers); 5/34 (brain cancers); 1/18 (breast cancers); 1/29 (colon cancers); 2/18 (esophageal cancers); 1/12 (head and neck cancers). In addition, the “peptide found … (positive/measured)” value is 2/23 (kidney cancers); 1/21 (liver cancers); 4/107 (lung cancers); 1/18 (skin cancers); 1/15 (urinary bladder cancers); 1/16 (uterus cancers).
Turning to “ALLPLSPYL (listed as Homo sapiens) [SEQ ID NO.: 427]”, the “peptide found … (positive/measured)” value was 9/18 (breast cancers); 2/18 (esophageal cancers); 7/17 under setting [1]; 1/12 (head and neck cancers); 7/21 (liver cancers); 22/107 (lung cancers). In addition, the “peptide found … (positive/measured)” value is, setting by setting: (pancreas cancers) 4/19; (prostate cancers) 4/87; (urinary bladder cancers) 2/15; (uterus cancers) 11/16. Also, the “peptide detected on tumor samples (positive/measured)” value reads like this: (esophageal cancers) 1/17; (liver cancers) 4/16; (lung cancers) 19/91; (pancreatic cancers) 4/19; (prostate cancers) 4/43; (small cell lung cancers) 1/15.
Take “KLAEGLDIQL (listed as Homo sapiens) [SEQ ID NO.: 449]”: the “peptide found … (positive/measured)” value is, setting by setting: (colon or rectum cancers) 3/29; (lung cancers) 6/107.
In the case of “KIFEMLEGV (listed as Homo sapiens) [SEQ ID NO.: 11]”, the “number of samples with detectable presentation of the peptide” value (normal tissues, total) came to 3.
With “214 (FLLDLDPLLL; listed as Homo sapiens) [compound 214]”, the Additional organs/cancerous diseases entry (additional tumor types on which the peptide was found: over-presentation on more than 5% of the measured tumor samples, or presentation on more than 5% with ratio of geometric means tumor vs normal tissues larger than 3) is on record as “Brain Cancer, CRC, CLL, Urinary Bladder Cancer”.
With “VMNDRLYAI (listed as Homo sapiens) [SEQ ID NO.: 587]”, the “number of samples with detectable presentation of the peptide” value was found to be 3 (normal tissue: spleen) and 5 (normal tissues, total).
For “RLWEEGEELEL (listed as Homo sapiens) [SEQ ID NO.: 150]”, the “peptide found … (positive/measured)” value was 1/18 (breast cancers); 1/29 (colon cancers); 2/18 (esophageal cancers); 4/17 under setting [1]; 1/12 (head and neck cancers); 10/107 (lung cancers). Moreover, the “peptide found … (positive/measured)” value was 2/18 (skin cancers) and 1/16 (uterus cancers).
With “SLMEPPAVLLL (listed as Homo sapiens) [SEQ ID NO.: 1]”, the “peptide detected on tumor samples (positive/measured)” value is, setting by setting: (brain cancers) 1/29; (colorectal cancers) 1/28; (esophageal cancers) 2/17; (lung cancers) 7/91; (renal cancers) 1/22; (small cell lung cancers) 2/15.
For “LLLDITPEI (listed as Homo sapiens) [SEQ ID NO.: 143]”, the “peptide found … (positive/measured)” value (brain cancers) was 2/34; the “peptide found … (positive/measured)” value (breast cancers) was 4/18; the “peptide found … (positive/measured)” value (esophageal cancers) is on record as 2/18; the “peptide found … (positive/measured)” value (head and neck cancers) is reported as 1/12; the “peptide found … (positive/measured)” value (liver cancers) was 2/21; the “peptide found … (positive/measured)” value (lung cancers) was 6/107. For the same substance, the “peptide found … (positive/measured)” value is listed as 2/18 (skin cancers), 1/45 (stomach cancers) and 2/15 (urinary bladder cancers).

Values taken from patent US10227388B2, “Peptides and combination of peptides for use in immunotherapy against non-small cell lung cancer and other cancers” (immatics biotechnologies GmbH, priority 2015, dated 2019).
